Data taken from publication PMC2978108.

Tests used:
[1] = target: T1, GST-GRD (GRD domain of GAPA, residues 202-557, GST fusion) (D. discoideum) (UniProt O00899); experiment: pull-down; GST-GRD bound beads incubated 3 hrs at 4°C with lysates of cells expressing Rac proteins as GFP fusions; 25 mM Tris/HCl pH 7.5, 150 mM NaCl, 5 mM EDTA, 0.5% Triton X-100, 1 mM NaF, 0.5 mM Na3VO4, 1 mM DTT; blot with GFP mAb; only the target purified
T1 sequence: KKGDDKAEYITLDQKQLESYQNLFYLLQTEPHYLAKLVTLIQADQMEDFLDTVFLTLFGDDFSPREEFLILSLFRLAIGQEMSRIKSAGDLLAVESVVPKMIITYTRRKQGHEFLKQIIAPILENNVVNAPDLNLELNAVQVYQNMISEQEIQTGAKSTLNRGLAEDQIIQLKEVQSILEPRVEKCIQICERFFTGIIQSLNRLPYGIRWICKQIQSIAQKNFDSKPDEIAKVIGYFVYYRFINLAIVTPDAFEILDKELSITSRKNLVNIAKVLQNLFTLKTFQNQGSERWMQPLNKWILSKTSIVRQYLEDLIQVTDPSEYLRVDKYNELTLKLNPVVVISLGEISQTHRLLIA

[2] = target: T1, GST-GRD (GRD domain of GAPA, residues 202-557, GST fusion) (D. discoideum); experiment: pull-down; GST-GRD on glutathione sepharose beads as bait with His-tagged cortexillin I polypeptides
[3] = target: T1, GST-GRD (GRD domain of GAPA, residues 202-557, GST fusion) (D. discoideum); experiment: pull-down; glutathione sepharose beads coated with GST-GRD or GST-GAPA incubated with D. discoideum cell lysates at 4°C; eluates resolved by SDS-PAGE and immunoblotted; only the target purified

| Substance | binding [1] | binding [3] | other results |
| --- | --- | --- | --- |
| GFP-RacG (D. discoideum RacG as GFP fusion) | binds | – | – |
| His-tagged ABD domain of cortexillin I (D. discoideum) (domain or fragment) | – | – | binding [2]: binds |
| GFP-RacI (D. discoideum RacI as GFP fusion) | binds | – | – |
| GFP-rod1-6 (the six rod repeats of Filamin, GFP-tagged) (D. discoideum) (domain or fragment) | – | no binding | – |
| GFP-RacH (D. discoideum RacH as GFP fusion) | binds | – | – |
| GFP-ABD (actin binding domain of Filamin, GFP-tagged) (D. discoideum) (domain or fragment) | – | binds | – |

No constants are given. Whether binding was seen depends on the method and setting. Binding seen in cells or lysates may run through a third protein. A result given as binding can be weak or reduced; the word gives no strength. Where a sequence is shown, tags or fusion partners need not be part of it.
